Data on 1 substance can be found in patent US20140371160A1.

Amino acid sequences for entries named in this document (tags omitted). A change or cut given only in a name is not applied to a line headed by its entry. Residues count along the entry.
UniProt P00772, residues 27-266: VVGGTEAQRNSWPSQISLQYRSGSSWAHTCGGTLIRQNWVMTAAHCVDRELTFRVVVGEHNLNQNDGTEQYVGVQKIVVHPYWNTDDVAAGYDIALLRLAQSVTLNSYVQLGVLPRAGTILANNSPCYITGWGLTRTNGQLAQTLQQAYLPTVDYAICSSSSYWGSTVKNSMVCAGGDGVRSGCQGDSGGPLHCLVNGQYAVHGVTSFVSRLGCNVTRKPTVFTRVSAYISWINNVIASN
UniProt P01009: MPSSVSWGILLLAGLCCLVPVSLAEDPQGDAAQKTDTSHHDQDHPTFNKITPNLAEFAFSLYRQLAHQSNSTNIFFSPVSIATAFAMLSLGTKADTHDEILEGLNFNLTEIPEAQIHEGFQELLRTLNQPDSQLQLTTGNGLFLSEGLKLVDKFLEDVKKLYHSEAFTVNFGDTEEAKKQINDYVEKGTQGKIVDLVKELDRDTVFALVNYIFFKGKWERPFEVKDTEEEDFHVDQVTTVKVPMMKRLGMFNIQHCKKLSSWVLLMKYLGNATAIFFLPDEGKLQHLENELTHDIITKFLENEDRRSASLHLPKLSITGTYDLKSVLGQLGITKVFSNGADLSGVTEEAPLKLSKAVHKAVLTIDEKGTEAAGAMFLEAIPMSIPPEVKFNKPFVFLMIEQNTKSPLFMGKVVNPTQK

These are yes or no findings as the source states them, for the method shown. Some binding calls cover weakened binding; strength is not graded here.

The target in the assay is Porcine pancreatic elastase (Calbiochem, Cat. 324682) (porcine) (UniProt P00772). In words: elastase inhibition kinetics, AAA-pNA substrate.

As to “Alpha-1 antitrypsin variant AT9N (glutamine at the 9th position substituted with asparagine), expressed in CHO-K1 cells (from UniProt P01009 25-418)”, the binding entry is recorded as “binds”.
